Hit rate of the full screen: of about 78,000 compounds, about 1,800 (2.3%) were called active. Inconclusive means that the source gave no clear call. Such entries were picked first, then a sample of the others. No stated cut-off is given here; in the data, active means inhibition above about 30%; inconclusive means mostly about 10% to 28%; inactive means weaker than that.
biological target: Interleukin-1 receptor-like 1 (Homo sapiens) (UniProt Q01638); assay: inhibitors of human ST2 (IL1RL1) binding to IL-33, primary screen, biochemical, AlphaLISA (AID 1259354); conditions: AlphaLISA ST2-Fc/biotin-IL-33 interaction, 1 h; at 17 µM, active compounds read high

By UniProt entry, the sequences of proteins in these tests, tags left out. Where a name states a change or a piece, a line headed by the entry shows the natural chain unless it says otherwise.
UniProt Q01638: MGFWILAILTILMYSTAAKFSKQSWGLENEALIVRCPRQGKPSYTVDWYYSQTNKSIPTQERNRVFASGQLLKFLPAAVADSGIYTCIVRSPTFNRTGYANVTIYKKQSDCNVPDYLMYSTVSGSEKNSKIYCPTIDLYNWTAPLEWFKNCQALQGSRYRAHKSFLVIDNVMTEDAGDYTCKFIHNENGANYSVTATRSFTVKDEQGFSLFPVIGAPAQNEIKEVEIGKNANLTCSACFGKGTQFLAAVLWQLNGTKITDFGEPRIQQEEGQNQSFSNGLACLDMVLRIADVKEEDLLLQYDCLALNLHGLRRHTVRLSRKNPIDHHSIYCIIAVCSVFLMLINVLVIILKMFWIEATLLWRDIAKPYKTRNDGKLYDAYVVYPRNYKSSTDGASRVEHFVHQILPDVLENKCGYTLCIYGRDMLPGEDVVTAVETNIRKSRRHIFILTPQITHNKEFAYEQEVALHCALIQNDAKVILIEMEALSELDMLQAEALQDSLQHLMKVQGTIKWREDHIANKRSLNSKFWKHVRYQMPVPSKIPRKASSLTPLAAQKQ

Compound	inhibition
COc1ccc(CN2CCN(c3ccccc3OC)CC2)cc1C	inconclusive: 10%
CCOc1cc(CN2CCN(c3ccccc3)CC2)ccc1O	inconclusive: 10%
O=[N+]([O-])c1ccc(N2CCN(Cc3ccc(Cl)c(Cl)c3)CC2)cc1	inconclusive: 26%
Cc1ccc(CN2CCCC(C(=O)c3ccc4c(c3)OCO4)C2)cc1C (centres undefined)	inconclusive: 20%
Cc1ccc(C)c(N2CCN(Cc3cc(F)ccc3F)CC2)c1	inconclusive: 11%
O=C1CC(=O)N(c2ccc(F)cc2)C(=O)N1	inactive
Fc1ccc(N2CCN(C[C@H]3CN4CC[C@H]3C[C@@H]4CNC(=S)NCc3ccco3)CC2)cc1	inconclusive: 17%
COc1ccccc1C(=O)N1C[C@@H]2C[C@H](C1)c1c(-c3ccccc3F)ccc(=O)n1C2	inactive
CC(C)(O)[C@@H]1[C@H]2OC(=O)[C@@H]1[C@]1(O)C[C@H]3O[C@]34C(=O)O[C@H]2[C@]14C (tested in a mixture with another compound)	inconclusive: 21%
Cc1ccc(N2CCN(Cc3ccccc3[N+](=O)[O-])CC2)cc1	inconclusive: 29%
Cc1ccc(CN2CCN(c3ccccc3)CC2)c(C)c1	inconclusive: 24%
O=C(NCc1ccc(F)cc1)[C@H]1CN2CCC1C[C@@H]2Cn1cc(-c2ccccn2)nn1 (some centres undefined)	inconclusive: 14%
COc1ccccc1N1CCN(C[C@H]2CN3CC[C@H]2C[C@@H]3CNC(=O)Nc2ccccc2)CC1	inconclusive: 12%
COc1ccc(C(O)(C(=O)O)c2ccc(OC)cc2)cc1	inconclusive: 12%
CC(Cc1ccccn1)N(C)Cc1cc2c(cc1Cl)OCO2 (centres undefined)	inactive
O=C([C@H]1CN2CCC1C[C@@H]2Cn1cc(-c2ccccc2)nn1)N1CCOCC1 (some centres undefined)	inconclusive: 16%
O=[N+]([O-])c1ccccc1CN1CCN(c2cccc(Cl)c2)CC1	inconclusive: 24%
Cc1cccc(CN2CCN(Cc3ccccc3C)CC2)c1	inactive
CC(=O)NCCNC(=O)[C@H]1CN2CCC1C[C@@H]2Cn1cc(-c2ccc(C(C)(C)C)cc2)nn1 (some centres undefined)	inconclusive: 16%
COc1ccc(CN2CCN(Cc3ccccc3)CC2)c(C)c1C	active: 34%
O=C(CCN1CCCCO1)N1C[C@@H]2C[C@H](C1)c1cccc(=O)n1C2	inconclusive: 10%
COc1cc(C)c(CN2CCN(c3ccccc3)CC2)cc1C	active: 31%
O=C(c1cccnc1)C1CCCN(Cc2cc3n(n2)CCCNC3)C1 (centres undefined)	inactive

Sorted by number of heavy atoms (rising): part of the list above
Compound	inhibition
O=C1CC(=O)N(c2ccc(F)cc2)C(=O)N1	inactive
Cc1ccc(CN2CCN(c3ccccc3)CC2)c(C)c1	inconclusive: 24%
Cc1cccc(CN2CCN(Cc3ccccc3C)CC2)c1	inactive
COc1cc(C)c(CN2CCN(c3ccccc3)CC2)cc1C	active: 31%
COc1ccc(CN2CCN(Cc3ccccc3)CC2)c(C)c1C	active: 34%
O=C(c1cccnc1)C1CCCN(Cc2cc3n(n2)CCCNC3)C1 (centres undefined)	inactive
Cc1ccc(CN2CCCC(C(=O)c3ccc4c(c3)OCO4)C2)cc1C (centres undefined)	inconclusive: 20%
O=C([C@H]1CN2CCC1C[C@@H]2Cn1cc(-c2ccccc2)nn1)N1CCOCC1 (some centres undefined)	inconclusive: 16%
O=C(NCc1ccc(F)cc1)[C@H]1CN2CCC1C[C@@H]2Cn1cc(-c2ccccn2)nn1 (some centres undefined)	inconclusive: 14%
Fc1ccc(N2CCN(C[C@H]3CN4CC[C@H]3C[C@@H]4CNC(=S)NCc3ccco3)CC2)cc1	inconclusive: 17%
COc1ccccc1N1CCN(C[C@H]2CN3CC[C@H]2C[C@@H]3CNC(=O)Nc2ccccc2)CC1	inconclusive: 12%

Further results.

Compound	inhibition
Cc1nc(CC(=O)N(CCN2CCOCC2)Cc2ccco2)c(C)s1	inconclusive: 15%
O=C(O)CSCC(=O)N1C[C@@H]2C[C@H](C1)c1ccc(-c3cccc(C(F)(F)F)c3)c(=O)n1C2	inactive
Clc1ccc(CN2CCN(Cc3ccc4c(c3)OCO4)CC2)cc1	inconclusive: 18%
Cc1[nH]c2ccc(Br)cc2c1CCN	inconclusive: 25%
C/C=C(\C)CN1CCC2(CCNCC2)C1	inactive
C#C[C@H]1CN2CC[C@H]1C[C@@H]2CNC(=S)Nc1cccc2ccccc12	inactive
O=c1oc2ccccc2c(O)c1C(c1ccc([N+](=O)[O-])cc1)c1c(O)c2ccccc2oc1=O	inconclusive: 10%
COCCNC(=O)[C@H]1CN2CCC1C[C@@H]2Cn1cc(-c2ccccn2)nn1 (some centres undefined)	inconclusive: 19%
COc1ccccc1CNC(=O)[C@H]1CN2CC[C@H]1C[C@@H]2Cn1cc(-c2ccccc2)nn1	inconclusive: 20%
O=C1CO[C@H]2CN(Cc3ccncc3)C[C@H]2N1CC1CCC1	inconclusive: 19%
COc1ccc(CN2CCN(c3ccc(F)cc3)CC2)cc1OC	inconclusive: 24%
C=C1[C@@H]2CC[C@@]3(C)[C@H](c4ccoc4)OC(=O)C[C@]13O[C@H]1CC(=O)C(C)(C)[C@H]([C@@H](OC(C)=O)C(=O)OC)[C@]12C	inconclusive: 18%
Cc1nc(-c2ccco2)cc([C@H]2CN3CC[C@H]2C[C@@H]3CNC(=O)c2ccc(C(F)(F)F)cc2)n1	inconclusive: 13%
C=CCN(C)C(=O)[C@H]1CN2CCC1C[C@@H]2Cn1cc(-c2ccccc2)nn1 (some centres undefined)	inconclusive: 11%
CN(C)CC(=O)N1C[C@@H]2C[C@H](C1)c1ccc(-c3ccccc3CN(C)C)c(=O)n1C2	inactive
CCCCn1c(C)c(C(=O)OCC)c2cc(O)c3ccccc3c21	inconclusive: 12%
O=[N+]([O-])c1ccc(N2CCN(Cc3ccc(F)c(Br)c3)CC2)cc1	active: 31%
Cn1nc(-c2cccc3c2CCNC3)ccc1=O	inconclusive: 14%
CC1CCCN(C(=O)c2cn(Cc3ccccn3)cc(C(=O)NC3CCCCCCC3)c2=O)C1 (centres undefined)	inconclusive: 14%
O=C(c1ccc(F)cc1)N1C[C@@H]2C[C@H](C1)c1c(-c3cc4ccccc4s3)ccc(=O)n1C2	inconclusive: 16%
Cc1ccccc1CN1CCN(c2ccccc2Cl)CC1	inconclusive: 16%
O=C(O)c1cc[c]([Hg+])cc1	inconclusive: 17%
O=C([C@H]1CN2CCC1C[C@@H]2Cn1cc(C2(O)CCCCC2)nn1)N1CCOCC1 (some centres undefined)	inconclusive: 10%

Compound	inhibition
O=S(=O)(NC[C@H]1C[C@@H]2CCN1C[C@@H]2CN1CCSCC1)c1ccccc1	inactive
COc1ccccc1N1CCN(Cc2ccccc2[N+](=O)[O-])CC1	inconclusive: 12%
CCn1cnc2c(Nc3cccc(Cl)c3)nc(N[C@@H]3CCCC[C@@H]3N)nc21	inconclusive: 27%
Cc1ccc(C2N(c3ccccn3)C(=O)C3CCCN32)o1 (centres undefined)	inconclusive: 15%
COC[C@H]1CCCN1CCC(=O)Nc1cccnc1	inconclusive: 25%
O=C(Nc1ccon1)c1cccn(Cc2cccc(Cl)c2)c1=O	inconclusive: 14%
CCOc1cc(C2C(C#N)=C(N)Oc3c2c(=O)oc2ccccc32)cc([N+](=O)[O-])c1O (centres undefined)	inconclusive: 13%
O=C(NC1CCCCC1)[C@H]1CN2CC[C@H]1C[C@@H]2Cn1cc(CCO)nn1	inconclusive: 18%
COc1ccccc1N1CCN(C[C@H]2CN3CC[C@H]2C[C@@H]3CNC(=O)Nc2cccc(C#N)c2)CC1	inconclusive: 12%
CSc1ccc(-c2ccc3n(c2=O)C[C@H]2C[C@@H]3CN(C(=O)c3ccco3)C2)cc1	inconclusive: 15%
O=C(Nc1nccs1)c1cccn(Cc2ccccc2Cl)c1=O	inconclusive: 17%
CN(C)/C=C/c1c(C=O)c2cc([N+](=O)[O-])ccc2n1Cc1ccccc1	inconclusive: 29%
S=C(NCc1ccco1)NC[C@H]1C[C@@H]2CCN1C[C@@H]2CN1CCC(Cc2ccccc2)CC1	inconclusive: 19%
Cc1nc(-c2ccco2)cc([C@H]2CN3CC[C@H]2C[C@@H]3CNC(=O)C2CCCCC2)n1	inconclusive: 24%
COc1ccccc1N1CCN(C[C@H]2CN3CC[C@H]2C[C@@H]3CNC(=O)c2ccccc2)CC1	inactive
Cn1nc(-c2ccccc2)cc1[C@H]1CN2CC[C@H]1C[C@@H]2CNC(=O)N1CCOCC1	inconclusive: 10%
COc1ccc(N2CCN(Cc3cccc(Br)c3)CC2)cc1	active: 44%
COc1ccc(NC(C)=O)cc1NC(=O)c1cccn(Cc2cc(C)ccc2C)c1=O	inconclusive: 28%
CCOC(=O)c1c(C)n(Cc2ccccc2)c2c1cc(O)c1ccccc12	inactive
CCC(C)C1NC(=O)C(C(C)=O)=C1O (centres undefined)	inconclusive: 13%
Nc1nonc1-c1nonc1N	inactive
Brc1ccc(CN2CCN(c3ccccc3)CC2)cc1	active: 32%
COc1ccccc1N1CCN(C[C@H]2CN3CC[C@H]2C[C@@H]3CNC(=S)NCCN2CCOCC2)CC1	inconclusive: 10%

2 records picked at random from those above, as already listed:
Compound	inhibition
COc1ccccc1C(=O)N1C[C@@H]2C[C@H](C1)c1c(-c3ccccc3F)ccc(=O)n1C2	inactive
COc1ccccc1N1CCN(C[C@H]2CN3CC[C@H]2C[C@@H]3CNC(=S)NCCN2CCOCC2)CC1	inconclusive: 10%

(list continues)

Compound	inhibition
COc1ccc(CN2CCN(C)CC2)cc1C	inconclusive: 21%
COc1cccc(CC(C)NCc2csc(C)n2)c1 (centres undefined)	inactive
Cc1nc(-c2ccccc2)cc([C@H]2CN3CC[C@H]2C[C@@H]3CNC(=O)C2CCC2)n1	inconclusive: 13%
Cn1c(C(=O)N2CCC3(CC2)OCCO3)cc2c(=O)n3ccccc3nc21	inconclusive: 10%
Cc1ccc(C(C)n2ccnc2-c2coc(C)n2)cn1 (centres undefined)	inactive
Cc1cccc(N2CCN(Cc3ccc([N+](=O)[O-])cc3)CC2)c1C	active: 47%
Nc1ccc(CCN2CCN(c3cccc(C(F)(F)F)c3)CC2)cc1	inconclusive: 16%
O=C(NCc1ccc2c(c1)OCO2)[C@H]1CN2CCC1C[C@@H]2Cn1cc(CC2CCCCC2)nn1 (some centres undefined)	inconclusive: 14%
COc1ccc(N2CCN(Cc3ccc(C)cc3)CC2)cc1	active: 33%
Cn1nc(-c2cccc3c2CCNC3)c2cc(F)ccc21	inactive
Cc1ccc(C)c(Cn2cccc(C(=O)Nc3ccon3)c2=O)c1	inactive
Cn1nc(-c2ccc(F)cc2)cc1[C@H]1CN2CC[C@H]1C[C@@H]2CNC(=O)c1ccco1	inconclusive: 14%
CC(C)(C)N1C(=O)NC(=O)/C(=C\c2c(Cl)cccc2Cl)C1=O	inactive
Cc1cc(Cl)ccc1C(=O)C1CCCN(C2CSCCSC2)C1 (centres undefined)	inactive
N#Cc1cccc(-c2ccc3n(c2=O)C[C@H]2C[C@@H]3CN(C(=O)c3ccccc3)C2)c1	inconclusive: 14%
COc1ccccc1CNC(=O)[C@H]1CN2CCC1C[C@@H]2Cn1cc(-c2ccc(C(C)(C)C)cc2)nn1 (some centres undefined)	inactive
C/C=C1/C[N+]2(C)C3CC1C(CO)C2Cc1c3[nH]c2ccc(O)cc12 (centres undefined)	inactive
COc1cc2c(cc1O)C1(C)CCC(O)C(C)(C)C1CC2=O (centres undefined)	active: 37%
N#Cc1ccccc1CN1Cc2ccccc2C1=N	inactive
Cc1ccc(C(C)Nc2ccc(-c3nc(C4CC4)no3)cn2)cn1 (centres undefined)	inactive

Source: PubChem BioAssay AID1259354 (Paczesny and Yang Labs, IUPUI and University of Michigan, 2018)
